# Data source: PubChem BioAssay AID686943 (Drosophila RNAi Screening Center, 2013)
# Screen: 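Knockdowns that increase or decrease active ERK after insulin receptor stimulation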 (primary screen)
# Cells: Drosophila S2R+ haemocyte-like cells expressing YFP-tagged ERK (Rolled)
# Reagents: long dsRNA against Drosophila genes
# Challenge: insulin stimulation versus unstimulated cells; dose and duration not given
# Read-out: 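Antibody staining for doubly phosphorylated ERK divided by ERK-YFP signal, as plate z-scores, in insulin-treated and untreated cells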
# Direction: replicate 1, z-score of dpERK with insulin and replicate 2, z-score of dpERK with insulin: higher = more active ERK per ERK-YFP after insulin
# The screen tested about 23,000 reagents; this is an unselected part of those that have a named target and a result. 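Extra replicates exist only for a retested subset of genes; insulin dose and duration not given; both raised and lowered dpERK matter.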 A plus sign joins genes that one reagent is predicted to hit. Not all columns of the deposit are shown. Not stated in the record: the amount of reagent, the time to read-out.
predicted target,amplicon,"replicate 1, z-score of dpERK with insulin","replicate 2, z-score of dpERK with insulin"
Pak3,DRSC15017,-1.54,-3.44
CG7402,DRSC10839,0.4,-0.06
sinah,DRSC09910,0.3,-0.03
sinah,DRSC22181,-0.15,-0.18
EndoGI,DRSC01964,0.3,0.08
Nup44A,DRSC07248,1.3,1.79
Su(var)205,DRSC03446,-0.92,-1.08
CG15386 + CG42371,DRSC00400,0.42,0.42
Ir56c,DRSC06544,-0.17,-0.05
CycJ,DRSC08653,0.08,0.35
CG15614,DRSC06567,0.02,0.11
Vrp1,DRSC04148,-1.4,-1.69
CG1774,DRSC15258,0,0.18
NC2alpha,DRSC04059,-0.5,1.05
CG4021,DRSC04439,-0.41,0.33
Brd7-9,DRSC03017,0.19,1.25
CG4629,DRSC00659,-0.36,1.89
CG34301,DRSC12704,-0.7,-1.33
UQCR-14L,DRSC15288,0.71,-0.09
UQCR-14L,DRSC22425,0.66,0.63
CG30339,DRSC05168,-0.07,-0.12
Sod2,DRSC07554,-0.21,0.5
CG30457,DRSC06661,1.47,0.65
Nadk1a,DRSC05431,-0.16,0.28
Nadk1a,DRSC06963,-0.08,-0.38
bdwf,DRSC15532,0.85,0.57
Spn88Ea,DRSC17061,1.06,-1.01
CG13196,DRSC06321,-0.49,0.32
CG11997,DRSC14464,-0.48,-0.51
CG12213,DRSC14478,0.14,0.76
CG12213,DRSC22109,0.08,0.1
Nepl17,DRSC14880,-0.07,-0.05
CG16800,DRSC02518,0.28,0.61
Efa6,DRSC13569,0.19,0.41
Efa6,DRSC15312,-0.41,-2.66
Efa6,DRSC16141,-0.15,1.55

Single entries from the entries so far.
bdwf [DRSC15532], replicate 2, z-score of dpERK with insulin = 0.57
Nadk1a [DRSC06963], replicate 2, z-score of dpERK with insulin: -0.38
Pak3 [DRSC15017], replicate 1, z-score of dpERK with insulin = -1.54
CG15614 [DRSC06567], replicate 1, z-score of dpERK with insulin → 0.02
Value of EndoGI [DRSC01964] under “replicate 2, z-score of dpERK with insulin”: 0.08

More records follow.
predicted target,amplicon,"replicate 1, z-score of dpERK with insulin","replicate 2, z-score of dpERK with insulin"
mRpL43,DRSC04508,0.12,-0.5
mRpL43,DRSC22571,0.1,-1.28
Cby,DRSC14591,-0.07,-0.19
HGTX,DRSC09319,0.96,0.83
HGTX,DRSC11181,-0.85,0.77
Slmap,DRSC03799,-0.89,-0.12
CG46441,DRSC15561,0.59,0.35
pio,DRSC04386,-0.02,-0.19
CR1075,DRSC12144,0.28,0.44
CG15745 (retired record),DRSC19711,-0.57,0.03
crm,DRSC18754,-0.08,0.58
CG17217,DRSC02592,0.24,0.32
Smg6,DRSC16029,-1.4,-0.03
smp-30,DRSC17059,-0.84,0.04
LManVI,DRSC03224,1.36,1.75
SERCA,DRSC04600,0.85,0.76
CG14568,DRSC11729,-0.17,-0.33
Spn27A,DRSC03608,0.54,1.1
pxb,DRSC13110,1.08,0.5
pxb,DRSC14996,0.4,-1.46
pxb,DRSC14997,0.5,-1.49
pxb,DRSC22225,0.52,0.07
